Reference: patent US20240165097A1, “PHARMACEUTICAL COMPOSITION FOR THE TREATMENT OF ALZHEIMER'S DISEASE OR DEMENTIA” (Heptares Therapeutics Limited, priority 2021, published 2024)

Key:
[1] = in humans; cited from earlier work
[2] = 5 mg x5 days then 10 mg once daily

## COc1cc2c(cc1OC)C(=O)C(CC1CCN(Cc3ccccc3)CC1)C2 (stereo not drawn) [Donepezil, 2-[(1-benzylpiperidin-4-yl)methyl]-5,6-dimethoxy-2,3-dihydro-1 H-inden-1-one, reference compound]
[1]
  Tmax: 3 to 4 h
  half-life: approximately 70 hours
[2]
  donepezil pharmacokinetic steady-state: at pharmacokinetic steady-state by the time of the 18th donepezil dose
